Assay results taken from patent publication US20120258482A1, “PCNA […]” (INDIANA UNIVERSITY RESEARCH AND TECHNOLOGY CORPORATION, priority 2009, published 2012).

Tested on: PCNA isoform in MCF7 cells (p53 wild-type)
Assay: 2D-PAGE anti-PCNA immunoblot after DOX exposure, MCF7
Type: cell-based, human
Conditions: 5 μM DOX
Procedure: FIG. 7A is a Western blot analysis of p53 wild-type (MCF7) and p53-mutant (MDA-MB-468) breast carcinoma cell lines exposed to 5 μM DOX for the indicated times. Cell extracts (200 μg) were resolved by 2D-PAGE and immunoblotted with anti-PCNA antibodies. In FIG. 7B extracts from MCF7 cells (50 μg) treated with 5 μM DOX were separated by 12% SDS-PAGE and immunoblotted with anti-p21WAF1 antibodies. FIG. 7C is a Western blot analysis of glutathione-immobilized GST-p21 and GST-PIP (a.a. 139-160) fusion proteins incubated with untreated MCF7 cell extracts for 2 h at 4° C. and the pull-down fractions were resolved by 2D-PAGE and Western blotted for PCNA. PCNA isoforms were isolated from MCF7 extracts by incubation with PIP-affinity beads for ˜2 h and analyzed by 2D-PAGE using pH 4-7 IPG strips. Colloidal Coomassie stained spots (See FIG. 7D) were excised from the gel, trypsin digested, and sequenced by LC-MS/MS.
2D-PAGE and mass spectrometry. Isoelectric focusing was performed using IPG strips and an IEF cell (BioRad) as previously described (Hoelz, D. J. et al. Proteomics 6, 4808-4816, 2006). […] Anti-PCNA (PC10) antibodies were obtained from Santa Cruz Biotech and anti-WAF1 (DF10) were from EMD Biosciences.
Although the description of Arm1 identifies a novel posttranslational mechanism in eukaryotic cells, its biological significance was still unclear. […]

SMILES: COc1cccc2c1C(=O)c1c(O)c3c(c(O)c1C2=O)C[C@@](O)(C(=O)CO)C[C@@H]3O[C@H]1C[C@H](N)[C@H](O)[C@H](C)O1 [DOX, doxorubicin]
- time of appearance of the PCNA isoform after exposure: 4 h
- duration of the PCNA isoform (data not shown): ~15 m
